Among the data in PubChem BioAssay AID445 (National Center for Advancing Translational Sciences (NCATS), 2006) are AC50 values, retold here.

The nature of the test: IkB Signaling. Conditions: ABC-DLBCL IkBa-CBG/CBR dual luciferase ratio (green luciferase fused to IkBa over red control in OCI-Ly3 lymphoma cells), 4 h. An outline of the steps: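 Curves were fitted separately to fusion (green), unfused (red) and ratio luminescence, then classed by r2, magnitude and activity. Cells: OCI-Ly3, 4 h compound plus doxycycline at 37C; 10 uM MG-132 defined full response.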
Setting [1] is: measured here: control luc red channel unless noted.

As a reminder, the AC50 is the concentration giving half of the maximal activity seen.

This is one part of the list. The main result of the screen is listed elsewhere. These columns were measured beside it and carry no call. Compounds called inactive in the main read-out are mostly missing here. Words in brackets tell the shape of the fitted curve; partial curves, single points and poor fits give uncertain potencies.

In the case of `CC(=O)Nc1ccc(NC(=O)C2(c3cccs3)CCOCC2)cc1`, the AC50 under setting [1] was 3.98 µM [rising, partial curve].
In the case of `CC(C)N(Cc1ccccc1)C(=O)C1CCCN(c2ncnc3onc(-c4ccc(F)cc4)c23)C1` (centres undefined), under setting [1], the AC50 was 31.6 µM [falling, partial curve].
On the same count and under the same terms, the result for `COc1ccc(OC)c(NC(=O)c2cc(C3CC3)nc3c2c(C)nn3-c2ccc(C)cc2)c1` reads 15.8 µM [falling, partial curve].
As to `Cc1ccc(S(=O)(=O)N2CCCC(C(=O)N(Cc3cccs3)C3CC3)C2)cc1` (centres undefined), the AC50 under setting [1] was 12.6 µM [falling, partial curve].
As for `COc1ccc(C(=O)NCc2ccc3c(c2)CCN3C(=O)c2ccc(C)cc2)cc1`, under setting [1], the AC50 was 5.01 µM [falling, partial curve].
Same read-out and setting: the result for `O=C(CSCc1ccc(Cl)cc1)c1ccco1` reads 39.8 µM [falling, single point].
Same read-out and setting: next, `Cc1ccc(CNC(=O)C2CCN(Cc3nc(-c4cccc(Br)c4)oc3C)CC2)cc1`: 31.6 µM [falling, partial curve, poor fit].
For `CC(C)CCNC(=O)C(c1ccco1)N(Cc1ccccc1)C(=O)c1snc(C(N)=O)c1N` (centres undefined), the AC50 under setting [1] was 12.6 µM [falling, partial curve].
Turning to `CCOc1ccc(-n2c(=O)c3c4c(sc3n(CC(=O)NC(C)CC)c2=O)CCCC4)cc1` (centres undefined), the AC50 under setting [1] is 0.00794 µM [rising, full curve, poor fit].
The same measure, in the same setting: the result for `COc1cccc(N2CCN(C(=O)CCCCCn3c(=O)[nH]c4ccccc4c3=O)CC2)c1` reads 31.6 µM [falling, single point]; that for `CC1CCn2c(nc3cc(C(=O)NCc4ccc(OC(C)C)cc4)ccc32)C1` (centres undefined), 31.6 µM [falling, partial curve].
With `CCC(C(=O)NC1CCC(C)CC1)n1nc(C)c2sc3ccccc3c2c1=O` (centres undefined), under setting [1], the concentration at half-maximal activity (AC50) was 12.6 µM [falling, partial curve].
Same read-out and setting: next, `CCc1ccc(CNC(=O)c2cc3c(=O)n(Cc4cccs4)ccc3nc2C)cc1`: 39.8 µM [falling, single point]; `c1ccc(-c2nc(CSc3nnc(-c4cccs4)o3)cs2)cc1`: 20 µM [falling, partial curve]; `COc1ccc(Cn2ccc3nc(C)c(C(=O)N4CCN(c5ccc(OC)cc5)CC4)cc3c2=O)cc1`: 31.6 µM [falling, single point].
Still for that read-out and setting: the result for `NC(=O)c1ccsc1NC(=O)c1nc(-c2ccccc2)n(-c2ccccc2)n1` reads 15.8 µM [falling, partial curve].
Still for that read-out and setting: the result for `Cc1cc(-n2c(C)cc(C(=O)CN3C(=O)NC4(CCCCCC4)C3=O)c2C)no1` reads 15.8 µM [falling, partial curve]; that for `COc1ccc(-n2ncc(C(=O)N3CCN(c4cc(C)ccc4C)CC3)c2C2CCN(C(=O)OC(C)(C)C)CC2)cc1`, 39.8 µM [falling, single point].
For the compound `CC1(C)Cc2c(sc3nc(SCC(=O)N4CCOCC4)nc(N)c23)CO1`, the half-maximal activity concentration (AC50) under setting [1] is 3.98 µM [falling, full curve, poor fit].
On the same count and under the same terms, the result for `CCS(=O)(=O)c1ncc(Cl)c(C(=O)Nc2c(C(=O)Nc3cccc(C)c3)oc3ccccc23)n1` reads 12.6 µM [falling, partial curve]; that for `COc1ccc(C)cc1NC(=O)c1cc2c(=O)n(Cc3cccnc3)ccc2nc1C`, 31.6 µM [falling, single point].
For the compound `Cc1noc(/C=C/N(C)C)c1S(=O)(=O)N1CCc2ccccc21`, the AC50 is, setting by setting: (measured here: IkB-luc green channel) 15.8 µM [falling, partial curve]; (measured here: control luc red channel) 10 µM [falling, partial curve].
For the compound `CCc1ccc(C(=O)N2CCC(c3nc(-c4ccc(S(=O)(=O)N5CCCC5)cc4)no3)CC2)cc1`, the AC50 under setting [1] was 12.6 µM [falling, partial curve].
Same read-out and setting: next, `CCCCS(=O)CC(COc1ccc(Cl)cc1)OC(=O)c1ccccc1` (centres undefined): 25.1 µM [falling, partial curve].
On the same count and under the same terms, the result for `CCCOc1ccc(CNC(=O)CCCn2nc(C)c3sc4ccccc4c3c2=O)cc1` reads 25.1 µM [falling, single point]; that for `COCCOC(=O)C1=C(C)NC(C)=C(C(=O)OC(C)C)[C@@H]1c1cccc([N+](=O)[O-])c1`, 39.8 µM [falling, partial curve].
For `Cc1cccc(NC(=O)C2CCN(S(=O)(=O)c3cccc4cccnc34)CC2)c1`, under setting [1], the AC50 was 7.94 µM [falling, partial curve].
The same measure, in the same setting: the result for `CC1CCCN(Cc2nc3c(c(=O)n(C)c(=O)n3C)n2Cc2ccc(Cl)cc2)C1` (centres undefined) reads 5.01 µM [falling, partial curve].
Still for that read-out and setting: next, `Cn1nc(C(=O)NCc2ccccc2Cl)c2c1-c1ccccc1S(=O)(=O)C2`: 0.02 µM [rising, full curve]; `Cc1cc(C)cc(NC(=O)CSc2oc(-c3ccco3)nc2S(=O)(=O)c2ccc(Cl)cc2)c1`: 6.31 µM [falling, partial curve].
Still for that read-out and setting: the result for `Cc1cc(Br)ccc1NC(=O)CCNS(=O)(=O)c1cccc2nonc12` reads 10 µM [falling, partial curve].
For the compound `O=C(Nc1ccc(Br)cc1F)c1cc2nc(-c3ccco3)cc(C(F)(F)Cl)n2n1`, the AC50 under setting [1] is 25.1 µM [rising, partial curve, poor fit].
Still for that read-out and setting: next, `CN(c1cccc(NC(=O)CCSc2ccccc2)c1)S(C)(=O)=O`: 25.1 µM [falling, single point].
Consider `CCn1c2ccccc2c2nnc(SCC(=O)c3ccccc3)nc21`, for which the AC50 under setting [1] is 39.8 µM [rising, single point].
`O=C(Cn1cc(SCc2ccccc2F)c2ccccc21)N1CCCC1`: the AC50 under setting [1] is 25.1 µM [falling, single point].
On the same count and under the same terms, the result for `COC(=O)c1ccc(COc2ccc3c(C)c(C)c(=O)oc3c2)o1` reads 3.16 µM [falling, full curve]; that for `Oc1ccccc1-c1nnc(COc2ccccc2)o1`, 10 µM [falling, partial curve].
Same read-out and setting: next, `COc1ccccc1N1C(=O)C2C3C=CC(C3)C2(C)C1=O` (centres undefined): 25.1 µM [rising, partial curve] [measured here: IkB-luc green channel].
The same measure, in the same setting: next, `O=C(Nc1nc2c(s1)CCCC2)c1ccccc1F`: 7.94 µM [falling, partial curve]; `CC(C)c1ccc(C2=NC(c3ccncc3)=Nc3ccc(F)cc3N2)cc1`: 25.1 µM [falling, partial curve]; `CC(C)n1c(C(=O)OCC(=O)NCc2ccc3c(c2)OCO3)cc2sccc21`: 39.8 µM [falling, single point].
`CNC(=O)c1ccc2nc(Cc3ccccc3)oc2c1`: under setting [1], the AC50 is 0.158 µM [rising, partial curve].
The same measure, in the same setting: the result for `CN1/C(=C\C(=O)CN2C(=O)NC3(CCCCCC3)C2=O)C(C)(C)c2ccccc21` reads 31.6 µM [falling, single point]; that for `CC(C)c1ccc2oc(-c3ccc(Cl)c(NC(=O)Cc4ccccc4)c3)nc2c1`, 0.794 µM [falling, full curve].
Still for that read-out and setting: next, `CCC1CCc2c(sc(NC(=O)C3c4ccccc4Oc4ccccc43)c2C(=O)OC)C1` (centres undefined): 7.94 µM [falling, full curve, poor fit].
Still for that read-out and setting: next, `O=C(COc1ccc(Cl)cc1)Nc1ccc(-c2nc3cc(Cl)ccc3o2)c(O)c1`: 0.158 µM [rising, full curve]; `CCCNC(=O)CN1C(=O)c2c(c3ccccc3n2C)C1c1ccc(OC)cc1` (centres undefined): 39.8 µM [falling, single point]; `COc1ccc(CNC(=O)c2cc3oc4ccccc4c3n2C)cc1OC`: 25.1 µM [falling, single point].
Turning to `CCc1ccc(S(=O)(=O)c2nnn3c2nc(N2CCC(C(N)=O)CC2)c2cc(Cl)ccc23)cc1`, the AC50 under setting [1] was 20 µM [falling, single point].
As to `CCc1ccc(NC(=O)C2CCN(S(=O)(=O)c3c(C)noc3C)CC2)cc1`, under setting [1], the AC50 was 31.6 µM [falling, single point].
As for `Cn1c(=O)c2cc(C(=O)Nc3cccc(C#N)c3)sc2c2ccccc21`, under setting [1], the AC50 is 0.631 µM [falling, full curve].
Still for that read-out and setting: next, `CCOc1ccc2nc(SCC(=O)c3cccs3)sc2c1`: 31.6 µM [falling, single point].
On the same count and under the same terms, next, `COC(=O)c1ccc(NC(=O)NC(C)c2c(-n3cccc3)sc(C)c2C)cc1` (centres undefined): 20 µM [falling, single point]; `COc1ccc(Cl)cc1NC(=O)c1sc2nc(-c3ccc(OC)c(OC)c3)ccc2c1N`: 0.0631 µM [rising, full curve, poor fit].
Still for that read-out and setting: the result for `COc1ccc(C(CC(=O)Nc2nccs2)n2cccc2)cc1` (centres undefined) reads 15.8 µM [falling, partial curve]; that for `NC(=O)c1c(N)sc2c1CCCCC2`, 12.6 µM [falling, partial curve]; that for `CCOc1ccc(NC(=O)c2c(NCc3cccs3)sc3c2CCCCC3)cc1`, 15.8 µM [falling, partial curve].
With `COC(=O)c1scc(-c2ccccc2)c1S(=O)(=O)Nc1ccc(C)c(Cl)c1`, the AC50 under setting [1] was 31.6 µM [falling, single point].
The same measure, in the same setting: next, `O=C(CSc1ncn(-c2ccccc2)n1)c1cccs1`: 10 µM [falling, partial curve]; `Cc1cc(NC(=O)COC(=O)c2c(C)nn(-c3ccccc3)c2C)no1`: 7.94 µM [falling, partial curve]; `Cc1ccnc2nc(NC(=O)c3ccccc3Cl)nn12`: 15.8 µM [falling, partial curve].
On the same count and under the same terms, next, `Cc1cccc(N(CC(=O)N(C)Cc2ccccc2)S(=O)(=O)c2ccccc2)c1C`: 25.1 µM [falling, single point]; `O=C(NCCc1ccc(Cl)cc1)c1ccc(CSCc2ccc(Cl)cc2)o1`: 15.8 µM [falling, partial curve].
